For two molecules, binding results are on record in PMC12406384.

Chains of the proteins cited; added tags and fusions are not shown.
UniProt P19091: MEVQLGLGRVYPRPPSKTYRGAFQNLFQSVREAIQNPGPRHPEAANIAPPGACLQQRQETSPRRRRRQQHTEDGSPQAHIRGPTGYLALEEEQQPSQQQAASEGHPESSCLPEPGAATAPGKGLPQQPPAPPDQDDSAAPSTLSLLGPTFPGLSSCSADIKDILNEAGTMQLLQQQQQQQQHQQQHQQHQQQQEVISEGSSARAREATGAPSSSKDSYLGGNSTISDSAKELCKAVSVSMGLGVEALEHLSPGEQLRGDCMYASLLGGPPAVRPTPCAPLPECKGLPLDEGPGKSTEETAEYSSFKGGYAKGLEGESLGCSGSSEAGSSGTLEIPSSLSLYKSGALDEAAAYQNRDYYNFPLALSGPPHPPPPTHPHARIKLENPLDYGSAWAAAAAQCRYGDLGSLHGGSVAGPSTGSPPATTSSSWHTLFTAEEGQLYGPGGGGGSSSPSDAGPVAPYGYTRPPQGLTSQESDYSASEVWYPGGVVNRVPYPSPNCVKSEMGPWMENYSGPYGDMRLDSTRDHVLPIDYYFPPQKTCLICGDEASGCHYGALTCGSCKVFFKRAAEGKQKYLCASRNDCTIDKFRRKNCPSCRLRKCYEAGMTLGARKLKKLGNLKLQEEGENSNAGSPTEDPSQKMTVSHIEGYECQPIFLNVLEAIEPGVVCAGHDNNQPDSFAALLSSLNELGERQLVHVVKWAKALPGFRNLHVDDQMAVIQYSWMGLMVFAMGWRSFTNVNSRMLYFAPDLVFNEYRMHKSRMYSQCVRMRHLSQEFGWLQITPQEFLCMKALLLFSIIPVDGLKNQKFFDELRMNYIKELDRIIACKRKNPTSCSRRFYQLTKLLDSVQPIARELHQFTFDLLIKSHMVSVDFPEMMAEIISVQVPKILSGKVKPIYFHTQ

Results are given in words; binding and its absence hold for the method and conditions named. In cells and extracts the contact can be indirect. Some entries that bind do so weakly or less than the wild type.

Assay [1] has as its target T1, Forkhead box protein L2 (mouse (endogenous in MPGCs)) (UniProt O88470).
T1 sequence: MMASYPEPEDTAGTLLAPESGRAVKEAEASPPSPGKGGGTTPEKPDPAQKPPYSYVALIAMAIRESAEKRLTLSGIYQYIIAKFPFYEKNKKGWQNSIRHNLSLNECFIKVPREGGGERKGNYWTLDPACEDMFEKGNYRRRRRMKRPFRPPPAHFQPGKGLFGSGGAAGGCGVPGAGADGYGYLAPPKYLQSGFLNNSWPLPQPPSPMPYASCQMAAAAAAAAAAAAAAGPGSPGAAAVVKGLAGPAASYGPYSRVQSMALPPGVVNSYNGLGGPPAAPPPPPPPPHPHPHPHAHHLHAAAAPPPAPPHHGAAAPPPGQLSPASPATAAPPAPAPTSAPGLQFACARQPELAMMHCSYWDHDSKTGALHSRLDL
Kind of assay: co-IP; endogenous proteins in MPGC lysate (500 µg/500 µl) with magnetic beads and anti-AR, anti-FOXL2 or rabbit IgG overnight at 4 °C; beads washed with PBS; Western blotting; cells treated with vehicle (ethanol) or DHT.

The target of assay [2] is androgen receptor (mouse (endogenous in MPGCs)) (UniProt P19091). Described as above.

Turning to “androgen receptor (from UniProt P19091 1-899)”, the binding result in assay [1] is reported as “binds”.

B1: Forkhead box protein L2 (protein, UniProt O88470 1-375)
chain: T1 sequence
Take B1: in assay [2], the binding entry is “binds”.
